Among the data in ChEMBL document CHEMBL3232851 (Bioorg Med Chem, 2014) are EC50 values, retold here.

This assay can be described thus: Membrane permeabilizing activity of the compound in calcein-loaded egg phosphatidylcholine liposomes assessed as release of calcein from liposomes at pH 6.8 after 10 mins by fluorescence assay. The format is ADME, Microsome.

By EC50 is commonly meant the concentration that produces a half-maximal response. In the case of `NS(=O)(=O)c1ccc(-n2nc(C(F)(F)F)cc2-c2ccccc2)cc1`, the EC50 is 120 µM.
